# Values from PubChem BioAssay AID743454 (Peter MacCallum Cancer Centre, 2014)
# Purpose: 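Search for knock-downs that restore vorinostat killing in resistant colon cancer cells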 (primary screen)
# Cells: human HCT116-VR colon cancer cells, selected for vorinostat resistance
# Reagent: siRNA pool against human genes, 40 nM siRNA pool
# Duration: vorinostat for 24 h, read-out about 72 h after transfection
# Treatment: vorinostat at 2.5 µM final
# Measured: 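Two measures, CellTiter-Fluor viability and luminescent caspase 3/7 activity, each as fold change against same-plate mock wells, mean of duplicates, then screen-wide robust z-score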
# Direction: viability robust z-score: higher = more viable cells than screen typical; caspase robust z-score: higher = more caspase 3/7 activity than screen typical
# Call rule: 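a knock-down is a hit when classed RV1 or RV2 for lowered viability, or CA1 or CA2 for caspase activation; those lethal without drug were dropped; hits were retested singly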
# The whole screen tested about 18,000 reagents; this is a random part of them. Over the whole deposit, 450 (2.5%) are marked active. 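Single biological run; no consistent viability z cut-off exists, so the class columns, not z-scores, define the calls.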
gene knocked down,viability hit class,caspase hit class,viability robust z-score,caspase robust z-score,Outcome
PAX8 (GeneID 7849),no change,no change,-1.04,0.24,inactive
NLGN4Y (GeneID 22829),no change,no change,-0.15,-0.58,inactive
RHBDF1 (GeneID 64285),no change,no change,0.22,2.08,inactive
TEX56P (GeneID 404220),no change,no change,0.06,-0.66,inactive
CCNE1 (GeneID 898),no change,no change,-0.3,-0.29,inactive
POTEG (GeneID 404785),no change,no change,-0.78,1.34,inactive
SRPK3 (GeneID 26576),no change,no change,0.32,1.48,inactive
MOG (GeneID 4340),no change,no change,-1.25,0.16,inactive
CCDC28B (GeneID 79140),no change,no change,1.29,-0.84,inactive
KLHL38 (GeneID 340359),no change,no change,0.97,-0.08,inactive
NCAPH2 (GeneID 29781),no change,no change,0.64,-1.18,inactive
GCNT3 (GeneID 9245),no change,no change,-1.14,0.54,inactive
PRKCI (GeneID 5584),no change,no change,0.8,-0.6,inactive
SEMG2 (GeneID 6407),no change,no change,0.15,2.49,inactive
MMP14 (GeneID 4323),no change,no change,-0.34,-0.39,inactive
PLEC (GeneID 5339),no change,no change,0.8,2.46,inactive
KLHL4 (GeneID 56062),no change,no change,0.75,-0.79,inactive
TP53AIP1 (GeneID 63970),no change,no change,0.55,3.71,inactive
IFIT1B (GeneID 439996),no change,no change,-0.5,0.5,inactive
KIT (GeneID 3815),no change,no change,-0.58,-1.44,inactive
COMMD6 (GeneID 170622),no change,no change,0.38,0.07,inactive
ZPLD1 (GeneID 131368),no change,no change,-0.71,-0.97,inactive
THSD1 (GeneID 55901),no change,no change,0.38,0.55,inactive
CHRNA9 (GeneID 55584),no change,no change,0.3,-0.52,inactive
METTL6 (GeneID 131965),no change,no change,1.1,-0.74,inactive
CHRM5 (GeneID 1133),no change,no change,-0.54,0.2,inactive
RAB36 (GeneID 9609),no change,no change,-0.92,-0.14,inactive
PPIP5K2 (GeneID 23262),no change,no change,-1.46,1.21,inactive
OTOA (GeneID 146183),no change,no change,-0.69,1.16,inactive
OR13C5 (GeneID 138799),no change,no change,-0.11,-0.5,inactive
CBX4 (GeneID 8535),no change,no change,-2.36,3.8,inactive
EDEM1 (GeneID 9695),no change,no change,0.63,-0.42,inactive
SNRPN (GeneID 6638),no change,no change,-0.3,-0.24,inactive
KBTBD8 (GeneID 84541),no change,no change,1.38,-1.18,inactive
ATP1A1 (GeneID 476),no change,no change,0.52,-0.92,inactive
MAGEA4 (GeneID 4103),no change,no change,-1.02,-0.9,inactive
ART3 (GeneID 419),no change,no change,-0.71,-0.73,inactive
NKAPL (GeneID 222698),no change,no change,0.71,0.02,inactive
ATP5MK (GeneID 84833),no change,no change,-0.05,-0.56,inactive
DUOX2 (GeneID 50506),no change,no change,-0.32,-0.6,inactive
SLITRK2 (GeneID 84631),no change,no change,-0.44,-0.89,inactive
HDHD5 (GeneID 27440),no change,no change,0.33,0.62,inactive
CACNG1 (GeneID 786),no change,no change,0.21,0.48,inactive
MYCBP (GeneID 26292),no change,no change,0.25,-0.34,inactive
MARVELD3 (GeneID 91862),no change,no change,1.42,1.18,inactive
IRX1 (GeneID 79192),no change,no change,-0.11,-0.55,inactive
EDN2 (GeneID 1907),no change,no change,0.14,1.46,inactive
ZNF425 (GeneID 155054),no change,no change,-0.16,1.22,inactive
KRT27 (GeneID 342574),no change,no change,0.55,-0.81,inactive
OSBPL8 (GeneID 114882),no change,no change,0.36,-0.52,inactive
TAS2R38 (GeneID 5726),no change,no change,-1.32,-0.07,inactive
CNBD1 (GeneID 168975),no change,no change,0.33,-0.17,inactive
IRF2 (GeneID 3660),no change,no change,1.38,-0.26,inactive
PPIH (GeneID 10465),no change,no change,0.81,-0.26,inactive
HMGCS1 (GeneID 3157),no change,no change,1.68,1.06,inactive
MAFK (GeneID 7975),no change,no change,-0.56,-0.6,inactive
SNHG32 (GeneID 50854),no change,no change,-0.61,0.96,inactive

Sorted by “viability robust z-score” (low to high): some entries from above.
gene knocked down,viability hit class,caspase hit class,viability robust z-score,caspase robust z-score,Outcome
CBX4 (GeneID 8535),no change,no change,-2.36,3.8,inactive
PPIP5K2 (GeneID 23262),no change,no change,-1.46,1.21,inactive
RAB36 (GeneID 9609),no change,no change,-0.92,-0.14,inactive
OTOA (GeneID 146183),no change,no change,-0.69,1.16,inactive
SNRPN (GeneID 6638),no change,no change,-0.3,-0.24,inactive
OR13C5 (GeneID 138799),no change,no change,-0.11,-0.5,inactive
ATP1A1 (GeneID 476),no change,no change,0.52,-0.92,inactive
EDEM1 (GeneID 9695),no change,no change,0.63,-0.42,inactive
KBTBD8 (GeneID 84541),no change,no change,1.38,-1.18,inactive
